# In paper PMC7093135:
# Amino acid sequences for entries named in this document (tags omitted). Residues count along the entry.
# UniProt P63168: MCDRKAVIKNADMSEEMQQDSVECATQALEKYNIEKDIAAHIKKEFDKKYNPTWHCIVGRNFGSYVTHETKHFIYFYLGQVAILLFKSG
# UniProt P62821: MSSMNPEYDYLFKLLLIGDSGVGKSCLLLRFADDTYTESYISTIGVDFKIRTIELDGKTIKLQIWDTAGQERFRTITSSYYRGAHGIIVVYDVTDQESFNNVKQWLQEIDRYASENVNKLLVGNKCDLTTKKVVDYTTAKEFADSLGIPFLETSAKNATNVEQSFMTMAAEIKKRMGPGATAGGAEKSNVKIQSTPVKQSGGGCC
# UniProt P63024: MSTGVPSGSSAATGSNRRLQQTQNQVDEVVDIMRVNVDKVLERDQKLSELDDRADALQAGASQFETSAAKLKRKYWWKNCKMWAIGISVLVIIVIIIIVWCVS
# UniProt P01887, residues 21-119: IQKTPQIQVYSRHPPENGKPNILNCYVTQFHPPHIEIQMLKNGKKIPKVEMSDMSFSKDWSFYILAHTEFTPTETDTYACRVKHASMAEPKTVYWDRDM
# Results are given in words; binding and its absence hold for the method and conditions named. Binding seen in cells or lysates may run through a third protein. These calls come from enrichment with a bait or labelling near it, and not all partners need be listed.
# B1: Snx2 (protein, UniProt Q9CWK8 1-519)
# chain: MAAEREPPPLGDVKPTDFEELEDGEDLFTSTVSTLESSPSSPEPASLPAEDISANSNGSKPVEVVLDDDREDLFAEATEEVSLDSPERELILSSEPSPAVTPVTPTTLIAPRIESKSISAPVIFDRSRDEIEEEANGDIFDIEIGVSDPEKVGDGMNAYMAYRVTTKTSLSMFSKSEFSVKRRFSDFLGLHSKLASKYLHVGYIVPPAPEKSIVGMTKVKVGKEDSSSTEFVEKRRAALERYLQRTVKHPTLLQDPDLRQFLESSELPRAVNTQALSGAGILRMVNKAADAVNKMTIKMNESDAWFEEKQQQFENLDQQLRKLHASVEALVCHRKELSANTAAFAKSAAMLGNSEDHTALSRALSQLAEVEEKIDQLHQEQAFADFYMFSELLSDYIRLIAAVKGVFDHRMKCWQKWEDAQITLLKKRETEAKMMVANKPDKIQQAKNEIREWEAKVQQGERDFEQISKTIRKEVGRFEKERVKDFKAVIIKYLESLVQTQQQLIKYWEAFLPEAKAIA
# B2: Canx (protein, UniProt P35564 21-591)
# chain: HDGHDDDAIDIEDDLDDVIEEVEDSKSKSDASTPPSPKVTYKAPVPTGEVYFADSFDRGSLSGWILSKAKKDDTDDEIAKYDGKWEVDEMKETKLPGDKGLVLMSRAKHHAISAKLNKPFLFDTKPLIVQYEVNFQNGIECGGAYVKLLSKTAELSLDQFHDKTPYTIMFGPDKCGEDYKLHFIFRHKNPKTGVYEEKHAKRPDADLKTYFTDKKTHLYTLILNPDNSFEILVDQSVVNSGNLLNDMTPPVNPSREIEDPEDRKPEDWDERPKIADPDAVKPDDWDEDAPSKIPDEEATKPEGWLDDEPEYIPDPDAEKPEDWDEDMDGEWEAPQIANPKCESAPGCGVWQRPMIDNPNYKGKWKPPMIDNPNYQGIWKPRKIPNPDFFEDLEPFKMTPFSAIGLELWSMTSDIFFDNFIISGDRRVVDDWANDGWGLKKAADGAAEPGVVLQMLEAAEERPWLWVVYILTVALPVFLVILFCCSGKKQSNAMEYKKTDAPQPDVKDEEGKEEEKNKRDEEEEEEKLEEKQKSDAEEDGVTGSQDEEDSKPKAEEDEILNRSPRNRKPRRE
# Biological target: Dynein light chain 1 (Dynll1) (mouse (endogenous in DC2.4)) (UniProt P63168)
# Test: affinity purification with mass spectrometry; Dynll1 immunoprecipitated from RIPA lysates of DC2.4 cells (no infection or infected with L. monocytogenes for 6.5 h) on protein A-agarose, HPLC-MS; proteins found in the IgG control subtracted
row,binding,Molecule
1,binds,Rab1a (from UniProt P62821 1-205)
2,binds,Vamp3 (from UniProt P63024 1-103)
3,binds,B2m (from UniProt P01887 21-119)
4,binds,B1
5,binds,B2
